Measurements: PubChem BioAssay AID200 (DTP/NCI, 2004)
The list shows only some results of the screen, not a fair sample: it is rich in T/C values a quarter to a half above the control, in often repeated tests (any T/C) and in doses without a T/C. Other doses and runs of a compound stand elsewhere. T/C is the treated group as % of the vehicle group. Some doses have a count of surviving animals in place of a T/C: the source holds a T/C of zero for them, seemingly a mark for toxic or unscored doses. Some survivor counts are full or nearly so, which does not show that the dose was tolerated: survival well below the control is almost never listed, so the zero probably covers shortened survival too. Counts of survivors are from the toxicity check (mostly the fifth day) where no day follows; animals may have died later. Schedule codes are those of the source, read here as Q, the interval in days (D) or hours (H), X, the number of doses. Some entries were tested several times; their values stand side by side, smallest first. For survival time, the PubChem record calls one and a half times the control and up active, and a quarter to a half above the control has no call in these data; cut-offs in other NCI protocols can differ. Some T/C values are followed by the survivors on the day toxicity was checked, most often the fifth; without a count, all were alive then. Counts like (3×) count equal records among those shown.

System: B6C3F1 mice, B16 melanoma ip, median survival T/C
Experiment: NCI In Vivo Anticancer Drug Screen. Data for tumor model B16 Melanoma (intraperitoneal) in B6C3F1 mice
Conditions: T/C endpoint: median survival time, higher T/C = longer survival
Summary of the method: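 Tumor-bearing mice received test compound; a separate group got vehicle only. Survival was then compared, with results reported as treated over control.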

[1] = dose: 100.0 mg/kg/injection, schedule: Q01DX009 (ip), vehicle: saline + alcohol
[2] = dose: 200.0 mg/kg/injection, schedule: Q01DX009 (ip), vehicle: saline with Tween-80
[3] = dose: 400.0 mg/kg/injection, schedule: Q01DX009 (ip), vehicle: saline with Tween-80
[4] = dose: 200.0 mg/kg/injection, schedule: Q01DX009 (ip), vehicle: Klucel (hydroxypropylcellulose) (HPC)

**Q.** Which results are given for `C[C@@]1(CO)[C@H](O)CC[C@@]2(C)[C@H]1CC[C@H]1C[C@@H]3C[C@@]12CC[C@@]3(O)COC(=O)CN`?
**A.** T/C (dose: 7.5 mg/kg/injection, schedule: Q01DX009 (ip), vehicle: saline + alcohol): 129 % of control; T/C (dose: 10.0 mg/kg/injection, schedule: Q03HX027 (ip), vehicle: saline + alcohol): 140 % of control; T/C (dose: 10.0 mg/kg/injection, schedule: Q03HX027 (sc), vehicle: saline + alcohol): 126 % of control; T/C (dose: 11.25 mg/kg/injection, schedule: Q03HX024 (ip), vehicle: saline + alcohol): 131 % of control; T/C (dose: 13.5 mg/kg/injection, schedule: Q01DX005 (iv), vehicle: saline + alcohol): 126 % of control; T/C (dose: 15.0 mg/kg/injection, schedule: Q01DX009 (ip), vehicle: saline + alcohol): 132 % of control; T/C (dose: 20.0 mg/kg/injection, schedule: Q03HX027 (ip), vehicle: saline + alcohol): 130 and 147 % of control [9 of 10 alive]; T/C (dose: 22.5 mg/kg/injection, schedule: Q03HX024 (ip), vehicle: saline + alcohol): 136 % of control; T/C (dose: 25.0 mg/kg/injection, schedule: Q01DX009 (ip), vehicle: saline + alcohol): 127 % of control; T/C (dose: 30.0 mg/kg/injection, schedule: Q01DX009 (ip), vehicle: saline + alcohol): 133 % of control; T/C (dose: 40.0 mg/kg/injection, schedule: Q03HX027 (ip), vehicle: saline + alcohol): 147 % of control [9 of 10 alive]; survivor count (dose: 45.0 mg/kg/injection, schedule: Q03HX024 (ip), vehicle: saline + alcohol): 9 of 9; T/C (dose: 50.0 mg/kg/injection, schedule: Q01DX009 (ip), vehicle: saline + alcohol): 133 and 134 % of control; T/C (dose: 60.0 mg/kg/injection, schedule: Q01DX009 (ip), vehicle: saline + alcohol): 130 [9 of 10 alive] and 138 % of control; survivor count (dose: 67.5 mg/kg/injection, schedule: Q03HX008 (ip), vehicle: saline + alcohol): 3 of 10; T/C (dose: 75.0 mg/kg/injection, schedule: Q01DX009 (ip), vehicle: saline + alcohol): 136 % of control; survivor count (dose: 80.0 mg/kg/injection, schedule: Q03HX027 (ip), vehicle: saline + alcohol): 0 of 10, 3 of 10, 10 of 10; survivor count (dose: 90.0 mg/kg/injection, schedule: Q03HX024 (ip), vehicle: saline + alcohol): 0 of 10; T/C [1]: 128 % of control [9 of 10 alive]; survivor count [1]: 10 of 10; survivor count (dose: 108.0 mg/kg/injection, schedule: Q01DX005 (ip), vehicle: saline + alcohol): 6 of 10; T/C (dose: 113.0 mg/kg/injection, schedule: Q01DX009 (ip), vehicle: saline + alcohol): 132 % of control; survivor count (dose: 120.0 mg/kg/injection, schedule: Q01DX009 (ip), vehicle: saline + alcohol): 1 of 8 and 3 of 10; T/C (dose: 120.0 mg/kg/injection, schedule: Q01DX009 (oral), vehicle: saline + alcohol): 128 % of control [7 of 8 alive]; survivor count (dose: 135.0 mg/kg/injection, schedule: Q01DX001 (ip), vehicle: saline + alcohol): 4 of 10; survivor count (dose: 135.0 mg/kg/injection, schedule: Q03HX008 (ip), vehicle: saline + alcohol): 0 of 10; survivor count (dose: 150.0 mg/kg/injection, schedule: Q01DX009 (ip), vehicle: saline + alcohol): 1 of 10; survivor count (dose: 180.0 mg/kg/injection, schedule: Q04DX003 (ip), vehicle: saline + alcohol): 1 of 10; survivor count (dose: 200.0 mg/kg/injection, schedule: Q01DX009 (ip), vehicle: saline + alcohol): 0 of 10; survivor count (dose: 216.0 mg/kg/injection, schedule: Q01DX005 (ip), vehicle: saline + alcohol): 0 of 10; survivor count (dose: 240.0 mg/kg/injection, schedule: Q01DX009 (ip), vehicle: saline + alcohol): 0 of 10; survivor count (dose: 270.0 mg/kg/injection, schedule: Q01DX001 (ip), vehicle: saline + alcohol): 0 of 10; survivor count (dose: 360.0 mg/kg/injection, schedule: Q04DX003 (ip), vehicle: saline + alcohol): 0 of 10; survivor count (dose: 400.0 mg/kg/injection, schedule: Q01DX009 (ip), vehicle: saline + alcohol): 0 of 10; survivor count (dose: 480.0 mg/kg/injection, schedule: Q01DX009 (oral), vehicle: saline + alcohol): 7 of 8; survivor count (dose: 540.0 mg/kg/injection, schedule: Q01DX001 (ip), vehicle: saline + alcohol): 0 of 10; survivor count (dose: 720.0 mg/kg/injection, schedule: Q04DX003 (ip), vehicle: saline + alcohol): 0 of 10

**Q.** With `C=C(OC)C(Nc1cc(OC)c(OC)cc1C(=O)OC1CC(O[C@@H]2C(=O)C(NC(=O)OC)=C3/C(=C\CSSSC)[C@]2(O)C#C/C=C\C#C[C@@H]3OC2OC(C)C(NOC3CC(O)C(SC)C(C)O3)C(O)C2OC2CC(OC)C(NCCC)CO2)OC(C)C1O)OC` (some centres not stated) as the compound, how does the survivor count (dose: 1.25 micrograms/kg/injection, schedule: Q01DX009 (ip), vehicle: saline + alcohol) read?
**A.** 9 of 10

**Q.** And the survivor count (dose: 2.5 micrograms/kg/injection, schedule: Q01DX009 (ip), vehicle: saline + alcohol)?
**A.** 8 of 10

**Q.** What about the survivor count (dose: 5.0 micrograms/kg/injection, schedule: Q01DX009 (ip), vehicle: saline + alcohol) of the same compound?
**A.** 1 of 10

**Q.** And the T/C (dose: 10.0 nanograms/kg/injection, schedule: Q01DX009 (ip), vehicle: saline + alcohol)?
**A.** 137 % of control

**Q.** What does the source list for `CC(=O)OCC1(C)NC(=O)c2ccccc2O1` (configuration not stated)?
**A.** survivor count [2]: 10 of 10; survivor count [3]: 10 of 10

**Q.** How did the T/C (dose: 12.5 mg/kg/injection, schedule: Q01DX009 (ip), vehicle: Klucel (hydroxypropylcellulose) (HPC)) turn out when `O=C(O)/C=C/C(=O)Nc1ccc(Cl)c(Cl)c1` was run?
**A.** 94, 97, 106, 142 % of control

**Q.** And the T/C (dose: 25.0 mg/kg/injection, schedule: Q01DX009 (ip), vehicle: Klucel (hydroxypropylcellulose) (HPC))?
**A.** 91 [9 of 10 alive], 102, 103, 152 % of control

**Q.** What about the T/C (dose: 50.0 mg/kg/injection, schedule: Q01DX009 (ip), vehicle: Klucel (hydroxypropylcellulose) (HPC)) of the same compound?
**A.** 124, 125, 126, 128, 142 % of control

**Q.** What about the T/C (dose: 100.0 mg/kg/injection, schedule: Q01DX009 (ip), vehicle: Klucel (hydroxypropylcellulose) (HPC)) of the same compound?
**A.** 108, 114, 116 [9 of 10 alive], 121, 134 % of control

**Q.** What about the T/C [4] of the same compound?
**A.** 116, 134, 136, 164 % of control

**Q.** What about the survivor count [4] of the same compound?
**A.** 7 of 10

**Q.** What about the survivor count (dose: 400.0 mg/kg/injection, schedule: Q01DX009 (ip), vehicle: Klucel (hydroxypropylcellulose) (HPC)) of the same compound?
**A.** 4 of 10

**Q.** Which survivor count [2] does the source give for `O=C1[C@H]2CCC[C@H]2[C@H]2CCC[C@@H]12` here?
**A.** 10 of 10

**Q.** What does the source list for `O=NN(CCCl)C(=O)NC1CCCCC1`?
**A.** T/C (dose: 1.0 mg/kg/injection, schedule: Q01DX009 (ip), vehicle: Klucel (hydroxypropylcellulose) (HPC)): 98 (2×), 103, 104, 106 [9 of 10 alive], 108, 114 % of control (2×); T/C (dose: 2.0 mg/kg/injection, schedule: Q01DX009 (ip), vehicle: Klucel (hydroxypropylcellulose) (HPC)): 105, 106, 107 (2×), 108, 110, 116, 117 % of control (2×); T/C (dose: 4.0 mg/kg/injection, schedule: Q01DX009 (ip), vehicle: Klucel (hydroxypropylcellulose) (HPC)): 107, 110, 110 [9 of 10 alive], 112, 118, 120 [9 of 10 alive], 122, 122 [7 of 10 alive], 123 % of control; T/C (dose: 8.0 mg/kg/injection, schedule: Q01DX009 (ip), vehicle: Klucel (hydroxypropylcellulose) (HPC)): 115, 129 [8 of 10 alive], 131, 146, 168 (2×), 190, 195, 216 % of control; T/C (dose: 16.0 mg/kg/injection, schedule: Q01DX009 (ip), vehicle: Klucel (hydroxypropylcellulose) (HPC)): 94, 108, 109, 130, 142, 170, 173, 209, 222 % of control; T/C (dose: 25.0 mg/kg/injection, schedule: Q01DX001 (ip), vehicle: carboxymethylcellulose (CMC)): 129 % of control [9 of 10 alive on day 9]; T/C (dose: 25.0 mg/kg/injection, schedule: Q01DX005 (ip), vehicle: carboxymethylcellulose (CMC)): 129 % of control; survivor count (dose: 32.0 mg/kg/injection, schedule: Q01DX009 (ip), vehicle: Klucel (hydroxypropylcellulose) (HPC)): 10 of 10

**Q.** For `O=C(Oc1ccccc1)c1cc(O)c(O)c(O)c1`, which survivor count [3] is on record?
**A.** 7 of 10

**Q.** What does the source list for `Cc1cccc(Nc2c(N)nc(N)nc2N)c1`?
**A.** survivor count (dose: 115.0 mg/kg/injection, schedule: Q01DX009 (ip), vehicle: Klucel (hydroxypropylcellulose) (HPC)): 5 of 10; survivor count (dose: 170.0 mg/kg/injection, schedule: Q01DX009 (ip), vehicle: Klucel (hydroxypropylcellulose) (HPC)): 4 of 10
